# Record: PubChem BioAssay AID743454 (Peter MacCallum Cancer Centre, 2014)
# Assay: 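Genes whose loss kills vorinostat-resistant colon cancer cells under vorinostat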 (primary screen)
# System: human HCT116-VR colon cancer cells, selected for vorinostat resistance
# Reagent: siRNA pool against human genes, 40 nM siRNA pool
# Duration: vorinostat for 24 h, read-out about 72 h after transfection
# Treatment: vorinostat at 2.5 µM final
# Detection: 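Cell viability by CellTiter-Fluor and caspase 3/7 activity by luminescence, each scaled to mock wells per plate, duplicates averaged, then robust z-scored over all plates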
# Direction: viability robust z-score: higher = more viable cells than screen typical; caspase robust z-score: higher = more caspase 3/7 activity than screen typical
# Hit rule: 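Hits are knock-downs in viability class RV1/RV2 or caspase class CA1/CA2, excluding ones that killed cells in the no-drug cell-count arm; hits then retested with single siRNAs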
# Shown is an unselected part of about 18,000 reagents tested. 450 of them (2.5%) count as active. 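Single biological run; no consistent viability z cut-off exists, so the class columns, not z-scores, define the calls.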
gene,viability hit class,caspase hit class,viability robust z-score,caspase robust z-score,activity call
RGS6,no change,no change,0.74,-1.17,inactive
FBXO8,no change,no change,-1.16,-1.16,inactive
FGF11,no change,no change,0.82,-0.69,inactive
ZSCAN32,no change,no change,-0.44,0.48,inactive
TRIOBP,no change,no change,-0.97,0.04,inactive
WDR17,no change,no change,0.1,-0.22,inactive
CCDC167,no change,no change,1,-0.5,inactive
LIN7B,no change,no change,-1.12,0.34,inactive
BCAS4,no change,no change,0.28,0.94,inactive
AMD1,no change,no change,-1.68,-0.46,inactive
POPDC2,no change,no change,-1.36,3.73,inactive
HBZ,no change,no change,-0.1,-0.18,inactive
CBR3,no change,no change,0.52,-0.86,inactive
KCNJ5-AS1,no change,no change,0.02,-0.98,inactive
CEBPE,no change,no change,-1.34,1,inactive
H3C15,no change,no change,-1.34,0.97,inactive
SLC2A6,no change,no change,0.96,4.12,inactive
SLC22A4,no change,no change,0.19,-1.04,inactive
PRDX6,no change,no change,-0.05,1.14,inactive
ELOVL5,no change,no change,0.28,-0.12,inactive
MAGEA11,no change,no change,0.44,0.87,inactive
SLBP,no change,no change,-0.76,3.17,inactive
ING1,no change,no change,0.53,3.62,inactive
MPI,no change,no change,-0.07,0.62,inactive
PDE2A,no change,no change,0.7,-0.92,inactive
CLEC7A,no change,no change,0.3,-0.49,inactive
NOM1,no change,no change,-1.83,-0.62,inactive
SUPT6H,no change,no change,-2.37,-1.4,inactive
OLFM1,no change,no change,-0.23,-0.99,inactive
RNF149,no change,no change,0.38,0.63,inactive
LYSMD2,no change,no change,1.76,0.15,inactive
CDH9,no change,no change,1.45,0.88,inactive
TOGARAM2,no change,no change,-0.66,0.11,inactive
PLD5,no change,no change,0.45,-0.01,inactive
CENPI,no change,no change,-0.9,-1.21,inactive
DYSF,no change,no change,3.86,1.36,inactive
GDF5,no change,no change,1.39,-0.22,inactive
ASNSD1,no change,no change,-0.55,0.48,inactive
POPDC1,no change,no change,0.09,-0.65,inactive
CA9,no change,no change,1.06,0.81,inactive
TRIM61,no change,no change,0.72,-0.12,inactive
RFPL1,no change,no change,-0.59,-0.24,inactive
CUL1,no change,no change,0.05,2.37,inactive
MS4A7,no change,no change,-0.28,0.16,inactive
ZNF18,no change,no change,1.91,0.16,inactive
SLC24A2,no change,no change,0.7,-0.4,inactive
NCMAP,no change,no change,-0.06,-0.83,inactive
AOC1,no change,CA1 (caspase activation),-1.03,6.74,active
IL1R1,no change,no change,-0.64,-0.58,inactive
MANEAL,no change,no change,-0.8,3.54,inactive
CTSF,no change,no change,0.38,1.47,inactive
GNB2,no change,no change,0.84,-0.07,inactive
MMP17,no change,no change,2.25,-0.52,inactive
COA4,no change,no change,1.01,-0.15,inactive
UBE2E1,no change,no change,-0.29,-0.71,inactive
HSD11B1,no change,no change,-0.18,-0.94,inactive
TMEM254,no change,no change,-0.62,-0.96,inactive

Called active, among the entries above:
gene,viability hit class,caspase hit class,viability robust z-score,caspase robust z-score,activity call
AOC1,no change,CA1 (caspase activation),-1.03,6.74,active
